These are yes or no findings as the source states them, for the method shown. In cells and extracts the contact can be indirect. Here binding means that the protein was enriched with, or labelled near, the bait; the list need not be complete. For part of these data: Sequences can lack the tags named with a protein.
Tests used:
[1] = target: M49 protein, recombinant, affinity-tagged (Streptococcus pyogenes) (UniProt P16947); assay: affinity purification with mass spectrometry; 20 μg affinity-tagged M protein on Strep-Tactin Sepharose beads, 100 μl pooled normal human plasma, 37°C 1 h, washed with ice-cold PBS, eluted with 5 mM biotin; DIA-MS, hits filtered against sfGFP (log2 enrichment >1, adjusted P 0.05); only the target purified
[2] = target: M28 protein, recombinant, affinity-tagged (Streptococcus pyogenes) (UniProt W0T1Y4); assay: as above
[3] = target: T1, M1 protein, recombinant, affinity-tagged (Streptococcus pyogenes) (UniProt Q99XV0); assay: as above
T1 sequence: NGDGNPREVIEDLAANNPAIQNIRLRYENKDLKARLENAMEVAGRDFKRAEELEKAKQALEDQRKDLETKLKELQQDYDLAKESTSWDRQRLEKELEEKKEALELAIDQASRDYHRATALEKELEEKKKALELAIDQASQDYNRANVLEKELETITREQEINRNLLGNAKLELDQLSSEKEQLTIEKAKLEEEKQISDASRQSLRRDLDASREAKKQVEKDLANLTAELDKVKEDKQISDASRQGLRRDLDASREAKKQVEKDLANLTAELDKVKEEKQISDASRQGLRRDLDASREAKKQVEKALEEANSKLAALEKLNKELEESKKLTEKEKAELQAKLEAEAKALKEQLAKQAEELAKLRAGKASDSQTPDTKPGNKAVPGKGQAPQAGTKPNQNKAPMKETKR

Protein sequences, listed by entry. Tags and fused reporters are not part of them. Lines headed by an entry give the natural chain unless they say otherwise; changes in a name come on top. Residues count along the entry.
UniProt P16947, residues 42-354: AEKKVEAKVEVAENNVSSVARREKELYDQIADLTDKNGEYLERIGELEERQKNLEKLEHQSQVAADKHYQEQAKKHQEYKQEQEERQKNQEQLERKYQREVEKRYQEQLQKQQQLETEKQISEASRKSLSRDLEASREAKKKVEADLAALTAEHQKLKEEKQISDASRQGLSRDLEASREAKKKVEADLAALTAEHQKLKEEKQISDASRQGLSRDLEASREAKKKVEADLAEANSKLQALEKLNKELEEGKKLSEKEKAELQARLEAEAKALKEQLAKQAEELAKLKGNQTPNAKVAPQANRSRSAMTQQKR
UniProt W0T1Y4, residues 42-358: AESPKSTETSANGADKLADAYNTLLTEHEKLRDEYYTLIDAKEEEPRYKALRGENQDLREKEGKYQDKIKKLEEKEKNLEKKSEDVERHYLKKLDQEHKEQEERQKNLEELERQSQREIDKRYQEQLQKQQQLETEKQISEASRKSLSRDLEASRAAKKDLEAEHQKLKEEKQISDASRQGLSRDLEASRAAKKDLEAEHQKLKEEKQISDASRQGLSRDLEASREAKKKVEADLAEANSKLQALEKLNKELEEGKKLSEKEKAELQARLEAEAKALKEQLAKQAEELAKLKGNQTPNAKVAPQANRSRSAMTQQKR
UniProt P02768, residues 25-609: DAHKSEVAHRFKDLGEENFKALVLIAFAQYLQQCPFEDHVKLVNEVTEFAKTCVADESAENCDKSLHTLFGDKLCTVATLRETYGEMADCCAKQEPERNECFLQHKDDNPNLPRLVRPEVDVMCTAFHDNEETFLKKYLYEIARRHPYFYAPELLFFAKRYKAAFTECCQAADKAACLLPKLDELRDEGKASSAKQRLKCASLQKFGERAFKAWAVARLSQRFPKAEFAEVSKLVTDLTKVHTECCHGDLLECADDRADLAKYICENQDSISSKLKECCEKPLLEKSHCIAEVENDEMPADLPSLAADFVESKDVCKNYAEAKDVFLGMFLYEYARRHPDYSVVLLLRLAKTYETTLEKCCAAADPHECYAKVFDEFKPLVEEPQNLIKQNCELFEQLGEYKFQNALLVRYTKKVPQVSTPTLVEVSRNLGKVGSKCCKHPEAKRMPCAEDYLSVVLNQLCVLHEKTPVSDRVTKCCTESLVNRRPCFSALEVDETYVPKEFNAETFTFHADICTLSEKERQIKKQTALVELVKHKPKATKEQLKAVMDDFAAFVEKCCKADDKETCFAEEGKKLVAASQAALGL
UniProt P01009, residues 25-418: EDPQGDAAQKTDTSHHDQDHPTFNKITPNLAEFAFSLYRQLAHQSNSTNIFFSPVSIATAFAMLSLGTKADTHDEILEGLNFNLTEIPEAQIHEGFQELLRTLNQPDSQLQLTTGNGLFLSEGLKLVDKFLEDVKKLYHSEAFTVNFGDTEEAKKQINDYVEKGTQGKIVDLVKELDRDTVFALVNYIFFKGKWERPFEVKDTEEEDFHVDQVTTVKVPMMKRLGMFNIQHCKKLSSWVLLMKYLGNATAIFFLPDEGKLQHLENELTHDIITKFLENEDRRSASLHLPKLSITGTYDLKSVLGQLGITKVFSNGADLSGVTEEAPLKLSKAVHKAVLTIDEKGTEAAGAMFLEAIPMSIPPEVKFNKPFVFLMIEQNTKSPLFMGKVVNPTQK
UniProt P02751, residues 32-2477: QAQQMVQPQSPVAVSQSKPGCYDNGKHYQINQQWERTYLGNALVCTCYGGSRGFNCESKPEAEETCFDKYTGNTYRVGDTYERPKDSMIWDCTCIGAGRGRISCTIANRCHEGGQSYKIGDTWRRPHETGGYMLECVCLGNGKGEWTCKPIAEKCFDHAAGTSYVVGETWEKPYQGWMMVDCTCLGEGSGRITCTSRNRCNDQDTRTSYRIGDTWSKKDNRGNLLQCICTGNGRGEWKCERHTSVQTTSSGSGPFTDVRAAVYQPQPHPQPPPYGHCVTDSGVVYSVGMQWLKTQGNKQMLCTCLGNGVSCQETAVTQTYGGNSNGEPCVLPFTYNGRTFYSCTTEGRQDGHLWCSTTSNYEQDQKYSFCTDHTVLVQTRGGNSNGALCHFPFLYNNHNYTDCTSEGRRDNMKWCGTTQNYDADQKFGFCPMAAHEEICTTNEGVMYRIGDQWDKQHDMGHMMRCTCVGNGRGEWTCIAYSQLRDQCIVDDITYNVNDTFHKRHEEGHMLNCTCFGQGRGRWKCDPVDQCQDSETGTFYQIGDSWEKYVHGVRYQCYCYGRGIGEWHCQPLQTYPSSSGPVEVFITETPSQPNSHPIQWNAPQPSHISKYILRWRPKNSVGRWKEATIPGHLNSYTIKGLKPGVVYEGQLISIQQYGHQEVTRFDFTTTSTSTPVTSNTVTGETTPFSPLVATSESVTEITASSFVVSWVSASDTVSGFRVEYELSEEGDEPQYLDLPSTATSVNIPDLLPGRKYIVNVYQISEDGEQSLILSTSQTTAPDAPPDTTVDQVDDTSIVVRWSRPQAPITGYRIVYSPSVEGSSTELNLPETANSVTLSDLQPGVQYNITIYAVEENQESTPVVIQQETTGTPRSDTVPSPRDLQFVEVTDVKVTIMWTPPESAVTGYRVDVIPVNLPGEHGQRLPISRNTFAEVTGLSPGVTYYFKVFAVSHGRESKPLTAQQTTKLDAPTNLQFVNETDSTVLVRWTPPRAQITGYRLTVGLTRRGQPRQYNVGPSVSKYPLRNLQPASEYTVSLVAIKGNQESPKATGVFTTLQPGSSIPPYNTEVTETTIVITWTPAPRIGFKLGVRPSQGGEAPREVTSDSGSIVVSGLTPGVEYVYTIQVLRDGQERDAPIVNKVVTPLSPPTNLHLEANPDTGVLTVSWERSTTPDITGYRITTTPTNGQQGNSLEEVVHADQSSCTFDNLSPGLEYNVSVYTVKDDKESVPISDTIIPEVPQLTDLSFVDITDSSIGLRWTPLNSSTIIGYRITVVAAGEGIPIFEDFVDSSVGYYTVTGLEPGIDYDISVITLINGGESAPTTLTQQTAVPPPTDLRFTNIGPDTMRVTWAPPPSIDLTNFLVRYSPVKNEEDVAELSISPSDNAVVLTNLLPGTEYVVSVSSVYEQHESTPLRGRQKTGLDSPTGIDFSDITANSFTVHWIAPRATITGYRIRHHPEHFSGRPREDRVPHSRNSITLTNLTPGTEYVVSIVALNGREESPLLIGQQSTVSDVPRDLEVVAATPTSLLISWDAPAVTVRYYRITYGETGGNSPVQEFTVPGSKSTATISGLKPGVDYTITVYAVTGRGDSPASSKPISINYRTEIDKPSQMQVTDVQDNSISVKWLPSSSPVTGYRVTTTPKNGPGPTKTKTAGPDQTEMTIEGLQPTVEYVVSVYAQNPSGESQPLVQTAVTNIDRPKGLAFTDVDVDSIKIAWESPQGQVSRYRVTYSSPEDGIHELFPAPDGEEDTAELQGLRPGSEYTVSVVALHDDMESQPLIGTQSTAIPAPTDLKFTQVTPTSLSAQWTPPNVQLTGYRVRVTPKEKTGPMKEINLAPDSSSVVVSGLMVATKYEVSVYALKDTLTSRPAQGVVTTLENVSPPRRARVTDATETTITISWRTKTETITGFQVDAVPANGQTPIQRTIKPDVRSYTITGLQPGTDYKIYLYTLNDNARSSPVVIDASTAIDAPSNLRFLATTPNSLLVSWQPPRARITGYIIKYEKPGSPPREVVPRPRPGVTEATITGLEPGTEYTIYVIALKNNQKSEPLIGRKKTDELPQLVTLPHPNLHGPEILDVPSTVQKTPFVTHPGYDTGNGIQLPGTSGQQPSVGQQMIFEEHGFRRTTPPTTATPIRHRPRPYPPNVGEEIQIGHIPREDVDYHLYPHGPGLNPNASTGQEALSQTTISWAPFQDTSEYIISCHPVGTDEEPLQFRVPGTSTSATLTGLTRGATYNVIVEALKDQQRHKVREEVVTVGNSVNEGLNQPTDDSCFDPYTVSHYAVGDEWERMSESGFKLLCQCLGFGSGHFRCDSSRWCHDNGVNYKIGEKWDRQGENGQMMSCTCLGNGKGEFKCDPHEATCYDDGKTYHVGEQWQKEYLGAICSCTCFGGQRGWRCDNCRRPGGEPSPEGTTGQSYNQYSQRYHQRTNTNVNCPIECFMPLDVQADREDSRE
UniProt P01591, residues 23-159: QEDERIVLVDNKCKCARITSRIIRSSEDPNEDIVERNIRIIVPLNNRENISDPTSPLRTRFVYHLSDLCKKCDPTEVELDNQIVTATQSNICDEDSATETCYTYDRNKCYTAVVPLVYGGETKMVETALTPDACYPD
UniProt P01833: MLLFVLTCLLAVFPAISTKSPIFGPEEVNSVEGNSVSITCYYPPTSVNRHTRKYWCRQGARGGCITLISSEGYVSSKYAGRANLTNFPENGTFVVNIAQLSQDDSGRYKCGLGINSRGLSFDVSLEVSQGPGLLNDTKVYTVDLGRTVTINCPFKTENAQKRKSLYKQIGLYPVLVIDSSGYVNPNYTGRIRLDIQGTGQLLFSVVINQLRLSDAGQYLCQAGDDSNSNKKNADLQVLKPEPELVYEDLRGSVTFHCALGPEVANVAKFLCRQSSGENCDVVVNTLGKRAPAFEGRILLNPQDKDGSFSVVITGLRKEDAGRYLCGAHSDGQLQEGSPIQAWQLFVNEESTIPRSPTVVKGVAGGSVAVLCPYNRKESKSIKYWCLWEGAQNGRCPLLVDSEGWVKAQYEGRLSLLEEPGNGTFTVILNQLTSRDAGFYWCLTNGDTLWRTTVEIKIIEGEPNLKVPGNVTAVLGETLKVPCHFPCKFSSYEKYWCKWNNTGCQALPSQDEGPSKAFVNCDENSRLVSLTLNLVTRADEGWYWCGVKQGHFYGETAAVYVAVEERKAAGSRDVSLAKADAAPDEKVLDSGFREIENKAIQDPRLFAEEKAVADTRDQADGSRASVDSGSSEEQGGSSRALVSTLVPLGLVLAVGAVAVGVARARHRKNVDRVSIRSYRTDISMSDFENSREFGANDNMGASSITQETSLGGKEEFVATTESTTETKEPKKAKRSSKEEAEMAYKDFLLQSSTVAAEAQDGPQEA

[4] = target: M28 protein, recombinant, affinity-tagged (Streptococcus pyogenes) (UniProt W0T1Y4); assay: affinity purification with mass spectrometry; affinity-tagged M28 on Strep-Tactin Sepharose beads, 100 μl of 100% saliva, 1% plasma in saliva, 10% plasma in saliva or 100% plasma, 37°C 1 h; relative intensities of pull-down against input; only the target purified
[5] = target: M28 protein, recombinant, affinity-tagged (Streptococcus pyogenes) (UniProt W0T1Y4); assay: affinity purification with mass spectrometry; 20 μg affinity-tagged M1 or M28 on Strep-Tactin Sepharose beads, 200 μl pooled normal human saliva, 37°C 1 h, washed with ice-cold PBS, eluted with 5 mM biotin; M28 compared with M1; only the target purified

| Substance | binding [1] | binding [2] | binding [3] | binding [4] | binding [5] |
| --- | --- | --- | --- | --- | --- |
| albumin (from UniProt P02768 25-609) | binds | binds | binds | – | – |
| alpha-1-antitrypsin (from UniProt P01009 25-418) | – | binds | – | – | – |
| fibronectin (from UniProt P02751 32-2477) | – | – | binds | – | – |
| immunoglobulin J chain (from UniProt P01591 23-159) | – | – | – | binds | binds |
| polymeric immunoglobulin receptor (from UniProt P01833) | – | – | – | binds | binds |
